In patent US7772177B2 (Aegera Therapeutics, Inc., priority 2005, dated 2010):

Test: general procedure: Fmoc solid-phase peptide synthesis; 2-chlorotrityl chloride resin; DIC (coupling to 4'-(aminomethyl)fluorescein)
Conditions: whole synthesis

For “Fmoc-Ala-Val-Pro-Phe-Tyr(t-Bu)-Leu-Pro-Gly(t-Bu)-Gly-OH”, the “final HPLC purity” value was over 95% pure.
